{"source": "PubChem BioAssay AID1259405 (NCATS, 2018)", "screen": "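Knock-downs that lift recombinant protein yield in hamster ovary cells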 (primary screen)", "cell system": "Chinese hamster CHO-K1 ovary cells with stable secreted eGFP expression", "knock-down reagent": "single siRNA against mouse genes, 0.8 pmol siRNA per well (2 µl of 400 nM stock)", "timing": "3 days", "detection": "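Per-well intracellular GFP measured by laser scanning cytometry, plus viability from ATP luminescence, each relative to plate median of non-targeting control wells, in %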", "direction": "GFP, % of control: higher = more GFP per well, higher productivity; viability (ATP), % of control: higher = more viable cells (more ATP)", "active means": "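a knock-down is called active if GFP reaches 120% or more of non-targeting control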", "note": "The whole screen tested about 50,000 reagents; shown is a random part of them. About 4,000 of all reagents (8%) count as active. 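Mouse siRNA library applied to hamster cells; one well for each siRNA.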 Reagents against one gene are numbered here. No sequences are given here."}
{"Target gene": "Klk4 (GeneID 56640)", "reagent no.": 1, "GFP, % of control": 80.2, "viability (ATP), % of control": 71.4, "Call": "inactive"}
{"Target gene": "Klk4 (GeneID 56640)", "reagent no.": 2, "GFP, % of control": 90.7, "viability (ATP), % of control": 54.7, "Call": "inactive"}
{"Target gene": "Klk4 (GeneID 56640)", "reagent no.": 3, "GFP, % of control": 61.7, "viability (ATP), % of control": 61.7, "Call": "inactive"}
{"Target gene": "Atp11b (GeneID 76295)", "reagent no.": 1, "GFP, % of control": 65.3, "viability (ATP), % of control": 47.3, "Call": "inactive"}
{"Target gene": "Atp11b (GeneID 76295)", "reagent no.": 2, "GFP, % of control": 88, "viability (ATP), % of control": 92.5, "Call": "inactive"}
{"Target gene": "Atp11b (GeneID 76295)", "reagent no.": 3, "GFP, % of control": 49.2, "viability (ATP), % of control": 71, "Call": "inactive"}
{"Target gene": "Or4k41 (GeneID 257935)", "reagent no.": 1, "GFP, % of control": 99.9, "viability (ATP), % of control": 86.9, "Call": "inactive"}
{"Target gene": "Or4k41 (GeneID 257935)", "reagent no.": 2, "GFP, % of control": 79.2, "viability (ATP), % of control": 60.6, "Call": "inactive"}
{"Target gene": "Or4k41 (GeneID 257935)", "reagent no.": 3, "GFP, % of control": 102, "viability (ATP), % of control": 107, "Call": "inactive"}
{"Target gene": "Cyp3a11 (GeneID 13112)", "reagent no.": 1, "GFP, % of control": 84.7, "viability (ATP), % of control": 79.3, "Call": "inactive"}
{"Target gene": "Cyp3a11 (GeneID 13112)", "reagent no.": 2, "GFP, % of control": 65.9, "viability (ATP), % of control": 78.1, "Call": "inactive"}
{"Target gene": "Cyp3a11 (GeneID 13112)", "reagent no.": 3, "GFP, % of control": 56.7, "viability (ATP), % of control": 48.5, "Call": "inactive"}
{"Target gene": "Cyth2 (GeneID 19158)", "reagent no.": 1, "GFP, % of control": 80.4, "viability (ATP), % of control": 87.8, "Call": "inactive"}
{"Target gene": "Cyth2 (GeneID 19158)", "reagent no.": 2, "GFP, % of control": 71.3, "viability (ATP), % of control": 101, "Call": "inactive"}
{"Target gene": "Cyth2 (GeneID 19158)", "reagent no.": 3, "GFP, % of control": 107, "viability (ATP), % of control": 93.7, "Call": "inactive"}
{"Target gene": "Ms4a3 (GeneID 170813)", "reagent no.": 1, "GFP, % of control": 94.4, "viability (ATP), % of control": 39.7, "Call": "inactive"}
{"Target gene": "Ms4a3 (GeneID 170813)", "reagent no.": 2, "GFP, % of control": 85.6, "viability (ATP), % of control": 81.3, "Call": "inactive"}
{"Target gene": "Ms4a3 (GeneID 170813)", "reagent no.": 3, "GFP, % of control": 63.8, "viability (ATP), % of control": 108, "Call": "inactive"}
{"Target gene": "Pan2 (GeneID 103135)", "reagent no.": 1, "GFP, % of control": 86.7, "viability (ATP), % of control": 99.3, "Call": "inactive"}
{"Target gene": "Pan2 (GeneID 103135)", "reagent no.": 2, "GFP, % of control": 113, "viability (ATP), % of control": 86, "Call": "inactive"}
{"Target gene": "Pan2 (GeneID 103135)", "reagent no.": 3, "GFP, % of control": 87.9, "viability (ATP), % of control": 80, "Call": "inactive"}
{"Target gene": "Lgalsl (GeneID 216551)", "reagent no.": 1, "GFP, % of control": 86.6, "viability (ATP), % of control": 74, "Call": "inactive"}
{"Target gene": "Lgalsl (GeneID 216551)", "reagent no.": 2, "GFP, % of control": 57.8, "viability (ATP), % of control": 58.1, "Call": "inactive"}
{"Target gene": "Lgalsl (GeneID 216551)", "reagent no.": 3, "GFP, % of control": 96.5, "viability (ATP), % of control": 65.8, "Call": "inactive"}
{"Target gene": "Fam78a (GeneID 241303)", "reagent no.": 1, "GFP, % of control": 99.8, "viability (ATP), % of control": 68.5, "Call": "inactive"}
{"Target gene": "Fam78a (GeneID 241303)", "reagent no.": 2, "GFP, % of control": 66.8, "viability (ATP), % of control": 68.5, "Call": "inactive"}
{"Target gene": "Fam78a (GeneID 241303)", "reagent no.": 3, "GFP, % of control": 63.7, "viability (ATP), % of control": 85.6, "Call": "inactive"}
{"Target gene": "Thap2 (GeneID 66816)", "reagent no.": 1, "GFP, % of control": 66.1, "viability (ATP), % of control": 66.4, "Call": "inactive"}
{"Target gene": "Thap2 (GeneID 66816)", "reagent no.": 2, "GFP, % of control": 74.3, "viability (ATP), % of control": 84.8, "Call": "inactive"}
{"Target gene": "Thap2 (GeneID 66816)", "reagent no.": 3, "GFP, % of control": 88, "viability (ATP), % of control": 91.6, "Call": "inactive"}
{"Target gene": "Ddit4 (GeneID 74747)", "reagent no.": 1, "GFP, % of control": 65.4, "viability (ATP), % of control": 96.1, "Call": "inactive"}
{"Target gene": "Ddit4 (GeneID 74747)", "reagent no.": 2, "GFP, % of control": 96.9, "viability (ATP), % of control": 70.8, "Call": "inactive"}
{"Target gene": "Ddit4 (GeneID 74747)", "reagent no.": 3, "GFP, % of control": 127, "viability (ATP), % of control": 46.2, "Call": "active"}
{"Target gene": "Or8b12c (GeneID 258883)", "reagent no.": 1, "GFP, % of control": 68.2, "viability (ATP), % of control": 62.1, "Call": "inactive"}
{"Target gene": "Or8b12c (GeneID 258883)", "reagent no.": 2, "GFP, % of control": 91.9, "viability (ATP), % of control": 50.8, "Call": "inactive"}
{"Target gene": "Or8b12c (GeneID 258883)", "reagent no.": 3, "GFP, % of control": 121, "viability (ATP), % of control": 73.2, "Call": "active"}
{"Target gene": "Syt4 (GeneID 20983)", "reagent no.": 1, "GFP, % of control": 113, "viability (ATP), % of control": 118, "Call": "inactive"}
{"Target gene": "Syt4 (GeneID 20983)", "reagent no.": 2, "GFP, % of control": 94.3, "viability (ATP), % of control": 84.4, "Call": "inactive"}
{"Target gene": "Foxc2 (GeneID 14234)", "reagent no.": 1, "GFP, % of control": 67.3, "viability (ATP), % of control": 102, "Call": "inactive"}
{"Target gene": "Foxc2 (GeneID 14234)", "reagent no.": 2, "GFP, % of control": 86.6, "viability (ATP), % of control": 90.8, "Call": "inactive"}

Only “GFP, % of control”, for 7 of the entries above:
Cyp3a11 (GeneID 13112) #3: 56.7
Cyth2 (GeneID 19158) #1: 80.4
Cyth2 (GeneID 19158) #2: 71.3
Cyth2 (GeneID 19158) #3: 107
Ms4a3 (GeneID 170813) #1: 94.4
Ms4a3 (GeneID 170813) #2: 85.6
Ms4a3 (GeneID 170813) #3: 63.8
